Measurements as given in PubChem BioAssay AID1347423 (Functional Genomics Laboratory (NCATS/FGL), 2020).
About 210 (0.4%) of roughly 52,000 sequences were called active.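 How the source made its calls: active means gene whose silencing raises cell survival under the drug, median off-target-corrected z-score across its silencing RNAs 2 or more; inactive means the rest.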 This is one part of the list.

Test: Resistance to Poly (ADP-Ribose) Polymerase inhibitor: Gene Identification via Genome-wide siRNA Screen
Details: mouse BRCA2 R2336H ES cells, olaparib, CellTiter-Glo viability; hits give high values
Procedure, shortened: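 Mouse BRCA2 R2336H ES cells were reverse-transfected with siRNA (20 nM final), treated at 48 h with 500 nM olaparib, and read by CellTiter-Glo after 72 h. Scores: MAD-based z per siRNA, median per gene, seed off-target correction.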

| Sequence | z-score |
| --- | --- |
| GGCCUUGAAGAUCAUGAUCTT against Asb2 | inactive: 0.511 |
| CGUGCCUUACAAUUAUUCUTT against Chodl | inactive: -0.303 |
| GCUGCGUGAACUCAACAUCTT against Rps7 | inactive: -3.27 |
| GGAGGUGGGUUUAUUAUACTT against Rab3b | inactive: 0.346 |
| GGUUGUUCUUAACAUAACCTT against BC013529 | inactive: 1.29 |
| GGGAGACUGUGAAGCUUUATT against Elk4 | inactive: -0.855 |
| CCUUCAGAUUUCAGCUGAATT against Prkcb1 | inactive: 0.572 |
| GGAAGGUACAGGAAUCUCUTT against Arl6 | inactive: -0.999 |
| GGAAGAAAAAUUGAAACACTT against Palmd | inactive: -0.337 |
| CCCAUGGCAAGUCCACACUTT against Phf2 | inactive: -0.285 |
| CCAGCAUUCACCUGACAAATT against Kif24 | inactive: -0.443 |
| GGCUUGAAUCACCAACCAGTT against Sgcz | inactive: -0.319 |
| CGUGGGAUCGAAUACAUAUTT against Iapp | inactive: -1.89 |
| GGAGAGACUGUGAAUACAUTT against Ly96 | inactive: -0.222 |
| GGCUAAGGGUAACGUGCUGTT against Bri3 | inactive: -0.47 |
| CCUAAACGAGGCCUUCGACTT against Ferd3l | inactive: 0.281 |
| CCAUCUAACCAAAUUCUGGTT against Agpat1 | inactive: 0.752 |
| GGAGAGGAGGUGGAAAAACTT against Rab11fip4 | inactive: 0.274 |
| GGUCAUGAGUGAAUAAUGATT against Arih1 | inactive: -1.22 |
| GCCACAACAACUUGAGCAGTT against Amigo | inactive: 2.05 |
| GGAAGAAAACACCAUUUUUTT against Irf6 | inactive: 1.7 |
| GGGAAAAGAAUCAAAAGUATT against 4932423M01Rik | inactive: 0.949 |
| CGCAAGGAAAUGCUUGACCTT against Elmo3 | inactive: -0.639 |
| GGAUACUUUAUGGUAUUUCTT against 9130023H24Rik | inactive: 1.57 |
| GUGAGAAAUUCAAUCUUGGTT against Gstm3 | inactive: 0.453 |
| GGGUUUGUUGUCAUUCCUCTT against Hiat1 | inactive: 0.547 |
| GGUCUUGAUGGUAGAGAGCTT against Strc | inactive: -0.63 |

| Sequence | z-score |
| --- | --- |
| CCCUACAUAUAUCAAGAUUTT against Ephb6 | inactive: 0.536 |
| GGCCUUUACAUCAAUAUCATT against 9630041N07 | inactive: -0.111 |
| GGUGAUGAUUUAAGAAUCCTT against Sez6 | inactive: 0.41 |
| GGAUGGAGAAGAUUUAAUGTT against Cul1 | inactive: -0.303 |
| CCUCUCUGACUGGUUGAAGTT against Olfr345 | inactive: -1.23 |
| GGGUAAACUCAGGCACCUCTT against 9430098E02Rik | inactive: -0.117 |
| GGCUGGUUUACAACAGAACTT against Lypla3 | inactive: 0.372 |
| GGACUCUCACCAAUAAAAGTT against Zadh2 | inactive: -0.421 |
| GCUUGAUAUAGUAUCCUUUTT against 1110021E09Rik | inactive: -0.39 |
| GGAAAAAGAGGCCUCAAAGTT against BB049667 | inactive: -0.0899 |
| GGGAGUCGUAUUUAUAUUCTT against Itga5 | inactive: 0.181 |
| GGUACACAACCAUCCUUGATT against Olfr600 | inactive: -0.543 |
| CCCAUAUGAGCUGAAAGCUTT against Il1b | inactive: 0.0824 |
| GGCAUAGUGAAUUUAGUCUTT against 4932408B21Rik | inactive: 0.868 |
| CGAAUAGGAUUUCGACCUGTT against E330023O18 | inactive: -0.619 |
| GGUUACCUCAGUUUAAAGATT against AW049900 | inactive: 0.039 |
| CCCUAGCUUUCUUCGAUGUTT against BC061194 | inactive: 0.107 |
| GAUCAAAAGCCUUCAACACTT against Olfr910 | inactive: -0.877 |
| GGAAGGAUUUAUCUUAGUUTT against C4bp | inactive: -1.49 |
| CCUGGUGAAACGUGUAUGATT against D730048I06Rik | inactive: 1.27 |
| GGAUCCUAAACACUUCAAGTT against Pitpnc1 | inactive: -0.451 |
| GGCAUUGGAUCUUCAUUUUTT against Slc18a1 | inactive: -0.0515 |
| GGGACAAGGCCUCGAUAUUTT against Ggps1 | inactive: -1 |
| GGAUUUUCAAUGCUGUAUGTT against Prkag2 | inactive: 1.31 |
| GAUUGGAGUGAAGAAACGUTT against Fkbp2 | inactive: -0.257 |
| GCGCGAGCAUUACAUAACUTT against C330001K17Rik | inactive: 1.29 |
| GCUUGUUAACCGACUAUAUTT against Fez2 | inactive: 0.234 |

| Sequence | z-score |
| --- | --- |
| GGCUAGCAGGAUCAGCAUCTT against F830003B07 | inactive: -0.613 |
| GGCCCAAUCUCAAGAGGAUTT against Tnfaip8l3 | inactive: 0.25 |
| GGUCACUCUAUGAGGAUUUTT against Vhlh | inactive: 1.09 |
| GGUUUGGAUGUGAAACAAGTT against Ttid | inactive: 0.782 |
| GGAUUUCCGUUGUCACUAATT against Krt1-4 | inactive: 2.21 |
| GGAAGAAGCCACAAUCAACTT against 1110032A03Rik | inactive: 0.981 |
| GGGUAUGCAGAAGGGAACATT against Nrap | inactive: -1.22 |
| CCACUUUGACAGGAGGAAGTT against Actn2 | inactive: 0.628 |
| GCUUGCACAAGAUGCUAUATT against B630005N14Rik | inactive: -0.837 |
| GGGUGCAUAAGCAAGCUGUTT against Nkiras2 | inactive: -0.781 |
| CGACCACAGCAUAUAUGUUTT against Mapkbp1 | inactive: -0.605 |
| GGAUUUGUCAUCCACUUCUTT against Sez6 | inactive: -1.18 |
| GCUAAACAGACAACUCAACTT against Rufy2 | inactive: 0.416 |
| GGAGCUAACUAACGAGAUGTT against T | inactive: 0.0643 |
| GCAAUUAUAACUUAGAAGGTT against BC022146 | inactive: -0.4 |
| CCUAAAAGCUCAUAGAUUCTT against Cidec | inactive: 0.471 |
| CCGUUGUAAUAACAUUGGCTT against Lipg | inactive: 0.203 |
| GGAGUGAAGGUUCAGAUCCTT against Accn1 | inactive: -1.5 |
| GGAAAACAACACGAUGAAATT against Tex13 | inactive: -0.431 |
| GGCCUACCUGGUUGAGAAATT against Spam1 | inactive: -0.147 |
| GCCACCAUUAAAAGACUGATT against Gdnf | inactive: -0.153 |
| GGAGUAUCAUUUCAUCUCATT against Mpp1 | inactive: 0.0567 |
| GGUAUUGUGAAACGUACACTT against Ky | inactive: 0.992 |
| GGGCUUGAAAUUGAAAUGUTT against Ccl9 | inactive: -0.697 |
| GCAAUUAGACAGCAUUCAUTT against Il16 | inactive: -0.515 |
| GGACAAGAAUCCUUGAGUGTT against Nxt1 | inactive: 0.162 |
| GGAUUGACAAAUAGCUUGUTT against B430209F14Rik | inactive: -0.636 |

As entered above.
z-score with GGAUUGACAAAUAGCUUGUTT against B430209F14Rik is entered as inactive: -0.636
z-score with GGGUGCAUAAGCAAGCUGUTT against Nkiras2 is entered as inactive: -0.781

(listing goes on)

| Sequence | z-score |
| --- | --- |
| GGUUAAAAAUGCCAUUAGATT against Olfr1233 | inactive: 0.0788 |
| GGACUGUUUGAACAUCUGGTT against Tomm7 | inactive: 0.303 |
| GGCUGUGGUAUUUUUGGUUTT against AW146242 | inactive: 0.638 |
| GGGAAUACGGAACCUUCUUTT against Olfr683 | inactive: 1.13 |
| GGAGGAAAGAAGUCCUACATT against Ear5 | inactive: -2.63 |
| GGAAAAAUUGCUUCUGACCTT against Rad51l1 | inactive: -0.179 |
| GGAUGAGUUUGAACUAUCCTT against Kcnip2 | inactive: 0.109 |
| GGAGGUAUACAUCACCACATT against Lrdd | inactive: -0.0951 |
| GGUUGACACUGUUGCUUAUTT against Ofcc1 | inactive: 1.07 |
| GGUGCACUCGUACUUGACUTT against Mgat4b | inactive: 0.429 |
| GGAAGGUGAUGAAGGAUCGTT against 3110048E14Rik | inactive: 0.118 |
| CCUCUUAUCUCACAUGCUATT against Ica1 | inactive: 2.23 |
| GCGGCUCAAACUCAUUUUGTT against LOC225594 | inactive: 0.828 |
| GGAACAGGCACAGAAAAUUTT against 4833417A11Rik | inactive: -1.8 |
| GGAGAACACAAAGUUAUACTT against Prpf39 | inactive: 0.186 |
| GGACAACACUGUCAAUCAUTT against Olfr922 | inactive: -2.38 |
| GGAUAUUUGAUCACUGUACTT against 6430701C03Rik | inactive: 1.17 |
| GGACAUGACCAAAAGGCUGTT against 3110006P09Rik | active: 2.27 |
| GGGCAGAUUGACUUUUUUGTT against Rragd | inactive: -1.03 |
| GGAAAAACUCUUCUUCACGTT against Nphs1 | inactive: 0.0964 |
| GGCAGAGGAGUCCUGUAAATT against Pcaf | inactive: 2.55 |
| GGUACGACAAGGAUUGGAGTT against Arhgap18 | inactive: -0.992 |
| GGAUUUCUAGUCUCCUCUUTT against Slc25a11 | inactive: -0.512 |
| CGAUUUUACCAACCGCUGCTT against Chtf18 | inactive: 0.754 |
